The source of these data is publication PMC5996148.

“And” between values parts separate entries of the source, which are not always exact repeats. Equal values may be shown once. The list shows a part of the results.

Experiment in all cases: protein microarray (ProtoArray v5.0), streptavidin-Alexa Fluor 647
Holding throughout (details): 3'-biotin; 20 mM Tris (pH 7.5), 5 mM MgCl2, 100 mM KCl, 0.1% Tween-20, A/T-rich and random oligonucleotide blockers; temperature not stated; high values mean tight binding

Test [1] concerns SH3BGRL2 (human).
The test system of test [2] is SH3BGRL3 (human).
For test [3], the system named is SH3GLB1 (human).
The test system of test [4] is SH3TC1 (human).
In test [5] the test system is SIN3A (human).
The subject of test [6] is SIP1 (human).
For test [7], the system named is SIRPG (human).
Test [8] concerns SIVA1 (human).
In test [9] the test system is SKIL (human).
The subject of test [10] is SKIP (human).
In test [11] the test system is SKP1A (human).
Test [12] relates to SLAMF1 (human).
Test [13] concerns SLC10A1 (human).
Test [14] concerns SLC16A4 (human).
Test [15] concerns SLC22A18AS (human).
In test [16] the test system is SLC22A6 (human).
The test system of test [17] is SLC23A2 (human).
For test [18], the system named is SLC25A13 (human).
Test [19] concerns SLC25A27 (human).
Test [20] relates to SLC25A29 (human).

Take “GGGAGGCTGAGGCAGG [G4-1 biotinylated (PQS2)]”: the binding signal was -0.281 z-score in test [1]; -0.288 z-score in [2]; -0.352 z-score in test [3]; -0.289 z-score in [4]; -0.287 z-score in test [5]; -0.365 z-score in test [6]. In addition, the binding signal in [7] is -0.321 z-score and -0.314 z-score; in test [8] it was -0.325 z-score; in [9] it was -0.316 z-score; in [10] it was -0.313 z-score; in test [11], -0.365 z-score; in test [12], -0.246 z-score. Further, the binding signal in [13] is -0.291 z-score; in test [14], -0.301 z-score; in [15], -0.284 z-score; in test [16] it was -0.299 z-score; in test [17], -0.295 z-score; in test [18], -0.303 z-score. The figures for the binding signal in test [19] and in test [20] were -0.266 z-score and -0.262 z-score, respectively.
